Assay results from PubChem BioAssay AID493014 (National Center for Advancing Translational Sciences (NCATS), 2011).
The list shows a part of the results. The main result of the screen is listed elsewhere. These columns were measured beside it and carry no call. The list favours compounds with an active or inconclusive main result. Words in brackets tell the shape of the fitted curve; partial curves, single points and poor fits give uncertain potencies.

Test: qHTS Assay to Find Inhibitors of Chronic Active B-Cell Receptor Signaling
Conditions: ABC-DLBCL IkBa-CBG/CBR reporter, luminescence ratio (green luciferase fused to IkBa over red control in TMD8 lymphoma cells), 4 h
How it was run: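 Compounds up to 46 uM were incubated four hours with TMD8 cells whose green CBG68 luciferase is fused to IkappaBalpha; red CBR luminescence normalised the signal, and concentration-effect curves were fitted to fusion, red and ratio data.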

[1] = measured here: CBR red luminescence, cell number

SMILES | AC50 [1] | AC50 (measured here: IkBa-CBG green luminescence)
CCSc1nnc(NC(=O)COc2ccccc2)s1 | 18.4 µM [falling, single point] | 
CC[C@]12c3[nH]c4ccccc4c3CCN1C(=O)C(CC(=O)NCc1ccc(OC)c(OC)c1)C[C@@H]2C(=O)N1CCN(C(=O)C2CC2)CC1 (some centres not stated) | 16.4 µM [falling, single point] | 
COc1ccc(/C=C2\Oc3cc(OCC(=O)N4CC(O)C[C@H]4C(=O)O)ccc3C2=O)cc1OC (some centres not stated) | 10 µM [falling, single point] | 
N#Cc1c(N)oc(-c2cccs2)c1-c1cccs1 | 13 µM [falling, partial curve, poor fit] | 
O=C(COc1cccc2cccnc12)N/N=C/c1ccccc1O | 35.5 µM [falling, single point] | 
CCn1nc(C)c(CN2CCc3c([nH]c4ccccc34)C2c2ccc(F)c(OC)c2)c1C (configuration not stated) | 22.4 µM [falling, single point] | 
CN(Cc1ccccc1)S(=O)(=O)c1ccc2c(c1)OCCO2 | 20.6 µM [rising, single point] | 
COc1cccc(/C=C2\N=C3CCCCCN3C2=O)c1 | 29.1 µM [falling, single point] | 
COc1cccc(CNC(=O)[C@@H](C)N2C(=O)N3CCc4c([nH]c5ccc(OC)cc45)C3(C)C2=O)c1 (some centres not stated) | 8.91 µM [falling, partial curve, poor fit] | 
Cc1ccc(Oc2ccc(NC(=O)C3=CC=CN4CCS(=O)(=O)N=C34)cc2)cc1 | 20.6 µM [rising, partial curve, poor fit] | 
C[C@@]12C(=O)Nc3ccc(Cl)cc3C(=O)N1[C@H]1c3ccccc3OC[C@@H]1[C@@H]2c1ccccc1 | 0.92 µM [falling, full curve] | 1.64 µM [rising, full curve, poor fit]
CC(C)(C)c1ccc(Oc2ccc(NC(=O)c3cccs3)cn2)cc1 | 5.01 µM [falling, partial curve, poor fit] | 
Cc1cccc(C)c1OC(=O)C(c1ccccc1)c1ccccc1 | 10.3 µM [rising, partial curve, poor fit] | 
NC(=O)CC1C(=O)N(c2ccc(Cl)cc2)C(=S)N1NC(=O)c1cccc(F)c1 (configuration not stated) | 1.58 µM [rising, partial curve] | 
CCOC(=O)c1cnc2nc(C(F)(F)F)[nH]n2c1=O | 29.1 µM [falling, single point] | 
COCCCN(C(=S)NC(=O)C12CC3CC(CC(C3)C1)C2)c1c(N)n(Cc2ccccc2)c(=O)[nH]c1=O | 3.16 µM [rising, partial curve, poor fit] | 

In a second layout: entries from further up
SMILES	AC50 [1]	AC50 (measured here: IkBa-CBG green luminescence)
Cc1ccc(Oc2ccc(NC(=O)C3=CC=CN4CCS(=O)(=O)N=C34)cc2)cc1	20.6 µM [rising, partial curve, poor fit]	
CCOC(=O)c1cnc2nc(C(F)(F)F)[nH]n2c1=O	29.1 µM [falling, single point]	
